# Experimental data taken from the supplement of paper PMC8728848.
# The list shows a part of the results.
# Tests used:
# Assay in all cases: glycan array binding signal (z-score within array); higher = stronger binding
# Settings in all cases: glycan notation: IUPAC condensed, linker removed
# [1] = target: Fuc(a1-2)Gal6S(b1-3)GlcNAc
# Procedure, shortened: (§1)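 Negative Z-scores can be read as non-binding. The Z-score is calculated within each array and then averaged across arrays of one protein sequence at different concentrations or buffers and across linkers. Arrays, 3228 in all, were curated from the Consortium for Functional Glycomics database and kept only where the protein sequence was available.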
# [2] = target: Fuc(a1-2)Gal6S(b1-3)GlcNAc6S
# Procedure, shortened: as §1
# Fuc(a1-2)Gal6S(b1-4)Glc = target: Fuc(a1-2)Gal6S(b1-4)Glc
# Procedure, shortened: as §1
# [3] = target: Fuc(a1-2)Gal6S(b1-4)Glc6S
# Procedure, shortened: as §1
# Fuc(a1-2)[Gal(a1-3)]Gal = target: Fuc(a1-2)[Gal(a1-3)]Gal
# Procedure, shortened: as §1
# [4] = target: Fuc(a1-2)[Gal(a1-3)]Gal(b1-3)GalNAc
# Procedure, shortened: as §1
# [5] = target: Fuc(a1-2)[Gal(a1-3)]Gal(b1-3)GalNAc(b1-3)Gal(a1-4)Gal(b1-4)Glc
# Procedure, shortened: as §1
# [6] = target: Fuc(a1-2)[Gal(a1-3)]Gal(b1-3)GlcNAc
# Procedure, shortened: as §1
# [7] = target: Fuc(a1-2)[Gal(a1-3)]Gal(b1-3)GlcNAc(b1-2)Man(a1-3)[Fuc(a1-2)[Gal(a1-3)]Gal(b1-3)GlcNAc(b1-2)Man(a1-6)]Man(b1-4)GlcNAc(b1-4)GlcNAc
# Procedure, shortened: as §1
# [8] = target: Fuc(a1-2)[Gal(a1-3)]Gal(b1-3)GlcNAc(b1-2)Man(a1-3)[Fuc(a1-2)[Gal(a1-3)]Gal(b1-3)GlcNAc(b1-2)Man(a1-6)]Man(b1-4)GlcNAc(b1-4)[Fuc(a1-6)]GlcNAc
# Procedure, shortened: as §1
# [9] = target: Fuc(a1-2)[Gal(a1-3)]Gal(b1-3)GlcNAc(b1-3)GalNAc
# Procedure, shortened: as §1
# [10] = target: Fuc(a1-2)[Gal(a1-3)]Gal(b1-3)GlcNAc(b1-6)GalNAc
# Procedure, shortened: as §1
# [11] = target: Fuc(a1-2)[Gal(a1-3)]Gal(b1-4)Glc
# Procedure, shortened: as §1
# [12] = target: Fuc(a1-2)[Gal(a1-3)]Gal(b1-4)GlcNAc
# Procedure, shortened: as §1
# [13] = target: Fuc(a1-2)[Gal(a1-3)]Gal(b1-4)GlcNAc(b1-2)Man
# Procedure, shortened: as §1
# [14] = target: Fuc(a1-2)[Gal(a1-3)]Gal(b1-4)GlcNAc(b1-2)Man(a1-3)[Fuc(a1-2)[Gal(a1-3)]Gal(b1-4)GlcNAc(b1-2)Man(a1-6)]Man(b1-4)GlcNAc(b1-4)GlcNAc
# Procedure, shortened: as §1
# [15] = target: Fuc(a1-2)[Gal(a1-3)]Gal(b1-4)GlcNAc(b1-2)Man(a1-3)[Fuc(a1-2)[Gal(a1-3)]Gal(b1-4)GlcNAc(b1-2)Man(a1-6)]Man(b1-4)GlcNAc(b1-4)[Fuc(a1-6)]GlcNAc
# Procedure, shortened: as §1
# [16] = target: Fuc(a1-2)[Gal(a1-3)]Gal(b1-4)GlcNAc(b1-3)GalNAc
# Procedure, shortened: as §1
# [17] = target: Fuc(a1-2)[Gal(a1-3)]Gal(b1-4)GlcNAc(b1-3)[Fuc(a1-2)[Gal(a1-3)]Gal(b1-4)GlcNAc(b1-6)]GalNAc
# Procedure, shortened: as §1
# [18] = target: Fuc(a1-2)[Gal(a1-3)]Gal(b1-4)GlcNAc(b1-6)GalNAc
# Procedure, shortened: as §1
# [19] = target: Fuc(a1-2)[Gal(a1-3)]Gal(b1-4)[Fuc(a1-3)]Glc
# Procedure, shortened: as §1
# [20] = target: Fuc(a1-2)[Gal(a1-3)]Gal(b1-4)[Fuc(a1-3)]GlcNAc
# Procedure, shortened: as §1
# [21] = target: Fuc(a1-2)[Gal(a1-3)]Gal(b1-4)[Fuc(a1-3)]GlcNAc(b1-3)GalNAc
# Procedure, shortened: as §1
# [22] = target: Fuc(a1-2)[Gal(a1-4)]Gal(b1-4)GlcNAc
# Procedure, shortened: as §1
# [23] = target: Fuc(a1-2)[GalNAc(a1-3)]Gal
# Procedure, shortened: as §1
# [24] = target: Fuc(a1-2)[GalNAc(a1-3)]Gal(b1-3)GalNAc(a1-3)[Fuc(a1-2)]Gal(b1-4)GlcNAc
# Procedure, shortened: as §1
# [25] = target: Fuc(a1-2)[GalNAc(a1-3)]Gal(b1-3)GalNAc(b1-3)Gal(a1-4)Gal(b1-4)Glc
# Procedure, shortened: as §1
# [26] = target: Fuc(a1-2)[GalNAc(a1-3)]Gal(b1-3)GlcNAc
# Procedure, shortened: as §1
# [27] = target: Fuc(a1-2)[GalNAc(a1-3)]Gal(b1-3)GlcNAc(b1-2)Man(a1-3)[Fuc(a1-2)[GalNAc(a1-3)]Gal(b1-3)GlcNAc(b1-2)Man(a1-6)]Man(b1-4)GlcNAc(b1-4)GlcNAc
# Procedure, shortened: as §1
# [28] = target: Fuc(a1-2)[GalNAc(a1-3)]Gal(b1-3)GlcNAc(b1-2)Man(a1-3)[Fuc(a1-2)[GalNAc(a1-3)]Gal(b1-3)GlcNAc(b1-2)Man(a1-6)]Man(b1-4)GlcNAc(b1-4)[Fuc(a1-6)]GlcNAc
# Procedure, shortened: as §1
# [29] = target: Fuc(a1-2)[GalNAc(a1-3)]Gal(b1-3)GlcNAc(b1-3)GalNAc
# Procedure, shortened: as §1
# [30] = target: Fuc(a1-2)[GalNAc(a1-3)]Gal(b1-3)GlcNAc(b1-6)GalNAc
# Procedure, shortened: as §1
# [31] = target: Fuc(a1-2)[GalNAc(a1-3)]Gal(b1-4)Glc
# Procedure, shortened: as §1
# [32] = target: Fuc(a1-2)[GalNAc(a1-3)]Gal(b1-4)GlcNAc
# Procedure, shortened: as §1
# [33] = target: Fuc(a1-2)[GalNAc(a1-3)]Gal(b1-4)GlcNAc(b1-2)Man
# Procedure, shortened: as §1
# [34] = target: Fuc(a1-2)[GalNAc(a1-3)]Gal(b1-4)GlcNAc(b1-2)Man(a1-3)[Fuc(a1-2)[GalNAc(a1-3)]Gal(b1-4)GlcNAc(b1-2)Man(a1-6)]Man(b1-4)GlcNAc(b1-4)GlcNAc
# Procedure, shortened: as §1
# [35] = target: Fuc(a1-2)[GalNAc(a1-3)]Gal(b1-4)GlcNAc(b1-2)Man(a1-3)[Fuc(a1-2)[GalNAc(a1-3)]Gal(b1-4)GlcNAc(b1-2)Man(a1-6)]Man(b1-4)GlcNAc(b1-4)[Fuc(a1-6)]GlcNAc
# Procedure, shortened: as §1
# [36] = target: Fuc(a1-2)[GalNAc(a1-3)]Gal(b1-4)GlcNAc(b1-3)Gal(b1-4)GlcNAc
# Procedure, shortened: as §1
# [37] = target: Fuc(a1-2)[GalNAc(a1-3)]Gal(b1-4)GlcNAc(b1-3)Gal(b1-4)GlcNAc(b1-3)Gal(b1-4)GlcNAc
# Procedure, shortened: as §1
# [38] = target: Fuc(a1-2)[GalNAc(a1-3)]Gal(b1-4)GlcNAc(b1-3)GalNAc
# Procedure, shortened: as §1
# [39] = target: Fuc(a1-2)[GalNAc(a1-3)]Gal(b1-4)GlcNAc(b1-3)[Fuc(a1-2)[GalNAc(a1-3)]Gal(b1-4)GlcNAc(b1-6)]GalNAc
# Procedure, shortened: as §1
# [40] = target: Fuc(a1-2)[GalNAc(a1-3)]Gal(b1-4)GlcNAc(b1-6)GalNAc
# Procedure, shortened: as §1
# [41] = target: Fuc(a1-2)[GalNAc(a1-3)]Gal(b1-4)[Fuc(a1-3)]GlcNAc
# Procedure, shortened: as §1
# [42] = target: Fuc(a1-2)[GalNAc(a1-3)]Gal(b1-4)[Fuc(a1-3)]GlcNAc(b1-3)GalNAc
# Procedure, shortened: as §1
# [43] = target: Fuc(a1-2)[GalNAc(a1-4)]Gal(b1-4)GlcNAc
# Procedure, shortened: as §1
binder,measurement,setting,value
"AFL6 (Aspergillus fumigatus), Q4WKJ1 (protein) MSFHLTAEDIRIEDGHRLVARLRNADGDLQDASIDLNTCLGNDNGHFQWDGVDFSHSAQDVHFAIEGGGQVPVLRAQLANQDGEFQDADVNLSERIENINGEFVFH",glycan array binding signal (z-score),[1],-0.707
same,glycan array binding signal (z-score),[2],0.818
same,glycan array binding signal (z-score),Fuc(a1-2)Gal6S(b1-4)Glc,-0.289
same,glycan array binding signal (z-score),[3],-0.191
same,glycan array binding signal (z-score),Fuc(a1-2)[Gal(a1-3)]Gal,-0.21
same,glycan array binding signal (z-score),[4],0.048
same,glycan array binding signal (z-score),[5],0.165
same,glycan array binding signal (z-score),[6],-0.417
same,glycan array binding signal (z-score),[7],-0.165
same,glycan array binding signal (z-score),[8],-0.086
same,glycan array binding signal (z-score),[9],0.593
same,glycan array binding signal (z-score),[10],-0.178
same,glycan array binding signal (z-score),[11],0.567
same,glycan array binding signal (z-score),[12],-0.373
same,glycan array binding signal (z-score),[13],-0.544
same,glycan array binding signal (z-score),[14],0.717
same,glycan array binding signal (z-score),[15],-0.281
same,glycan array binding signal (z-score),[16],-0.552
same,glycan array binding signal (z-score),[17],0.599
same,glycan array binding signal (z-score),[18],0.116
same,glycan array binding signal (z-score),[19],-0.609
same,glycan array binding signal (z-score),[20],0.576
same,glycan array binding signal (z-score),[21],-0.802
same,glycan array binding signal (z-score),[22],-0.097
same,glycan array binding signal (z-score),[23],0.228
same,glycan array binding signal (z-score),[24],-0.499
same,glycan array binding signal (z-score),[25],0.411
same,glycan array binding signal (z-score),[26],-0.256
same,glycan array binding signal (z-score),[27],-0.01
same,glycan array binding signal (z-score),[28],-0.071
same,glycan array binding signal (z-score),[29],0.633
same,glycan array binding signal (z-score),[30],-0.324
same,glycan array binding signal (z-score),[31],-0.426
same,glycan array binding signal (z-score),[32],0.222
same,glycan array binding signal (z-score),[33],-0.552
same,glycan array binding signal (z-score),[34],0.133
same,glycan array binding signal (z-score),[35],0.106
same,glycan array binding signal (z-score),[36],-0.619
same,glycan array binding signal (z-score),[37],0.4
same,glycan array binding signal (z-score),[38],-0.656
same,glycan array binding signal (z-score),[39],-0.309
same,glycan array binding signal (z-score),[40],-0.264
same,glycan array binding signal (z-score),[41],-0.067
same,glycan array binding signal (z-score),[42],0.26
same,glycan array binding signal (z-score),[43],0.151

# 4 records picked at random from the list so far:
binder,measurement,setting,value
"AFL6 (Aspergillus fumigatus), Q4WKJ1 (protein) MSFHLTAEDIRIEDGHRLVARLRNADGDLQDASIDLNTCLGNDNGHFQWDGVDFSHSAQDVHFAIEGGGQVPVLRAQLANQDGEFQDADVNLSERIENINGEFVFH",glycan array binding signal (z-score),[22],-0.097
same,glycan array binding signal (z-score),[16],-0.552
same,glycan array binding signal (z-score),[29],0.633
same,glycan array binding signal (z-score),[33],-0.552
